Assay: Melamine formaldehyde PMC leakage
Conditions: not given

Row | SMILES | Melamine formaldehyde PMC leakage (Comment Code J)
1 | CC1=CCC(C23CCCC(C)(C2)OC3)C1(C)C (stereo not drawn) [Material 571] | J (Melamine formaldehyde PMC leakage less than or equal to 5%)
2 | COc1ccc(CCC(C)=O)cc1 [Material 803] | J (Melamine formaldehyde PMC leakage less than or equal to 5%)
3 | CC1(C)CCCC2(C)C1CCC1(C)OCCC12 (stereo not drawn) [Material 673] | J (Melamine formaldehyde PMC leakage less than or equal to 5%)
4 | Cc1ccc(OC(=O)Cc2ccccc2)cc1 [Material 998] | J (Melamine formaldehyde PMC leakage less than or equal to 5%)
5 | CC(C)=CCCC1(C)C2CC=C(C)C1C2 (stereo not drawn) [Material 720] | J (Melamine formaldehyde PMC leakage less than or equal to 5%)
6 | CCCCCCCCC=CC#N [Material 827] | J (Melamine formaldehyde PMC leakage less than or equal to 5%)
7 | CCC(=O)OC1CC2CC1C1CC=CC21 (stereo not drawn) [Material 919] | J (Melamine formaldehyde PMC leakage less than or equal to 5%)
8 | CCCCCC=CC=CC(=O)OCC [Material 951] | J (Melamine formaldehyde PMC leakage less than or equal to 5%)
9 | COC(=O)c1ccccc1N=CCC(C)CCCC(C)(C)O (stereo not drawn) [Material 661] | J (Melamine formaldehyde PMC leakage less than or equal to 5%)
10 | O=C1CCCCCC=CCCCCCCCCO1 [Material 771] | J (Melamine formaldehyde PMC leakage less than or equal to 5%)
11 | CC(C)Cc1ccc2ccccc2n1 [Material 849] | J (Melamine formaldehyde PMC leakage less than or equal to 5%)
12 | CCOCOC1CCCCCCCCCCC1 [Material 607] | J (Melamine formaldehyde PMC leakage less than or equal to 5%)
13 | CC(C)=CCC/C(C)=C/CC/C(C)=C/CO [Material 1065] | J (Melamine formaldehyde PMC leakage less than or equal to 5%)
14 | C/C(=C\C#N)CCc1ccccc1 [Material 894] | J (Melamine formaldehyde PMC leakage less than or equal to 5%)
15 | C=C(C)C1CCC2(C)CCCC(=C)C2C1 (stereo not drawn) [Material 615] | J (Melamine formaldehyde PMC leakage less than or equal to 5%)
16 | CC(C)c1ccc2ncccc2c1 [Material 778] | J (Melamine formaldehyde PMC leakage less than or equal to 5%)
17 | CC1C(C)(C)C2CCC3CC(C)(C)OC3C2C1(C)C (stereo not drawn) [Material 680] | J (Melamine formaldehyde PMC leakage less than or equal to 5%)
18 | O=C(Cc1ccccc1)OCc1ccccc1 [Material 922] | J (Melamine formaldehyde PMC leakage less than or equal to 5%)
19 | C=C(C)C1CCC2(C)CCC=C(C)C2C1 (stereo not drawn) [Material 774] | J (Melamine formaldehyde PMC leakage less than or equal to 5%)
20 | c1ccc(CCOC2CCCCC2)cc1 [Material 953] | J (Melamine formaldehyde PMC leakage less than or equal to 5%)
21 | CCCCCC1CC(=O)C=C(C)C1C(=O)OCC (stereo not drawn) [Material 591] | J (Melamine formaldehyde PMC leakage less than or equal to 5%)
22 | CC1(O)CCC2=C(CCCC2(C)C)C1 (stereo not drawn) [Material 676] | J (Melamine formaldehyde PMC leakage less than or equal to 5%)
23 | COC(Cc1ccccc1)OC [Material 627] | J (Melamine formaldehyde PMC leakage less than or equal to 5%)
24 | CC1=CC2C(=C(C)CCCC2(C)C)CC1 (stereo not drawn) [Material 625] | J (Melamine formaldehyde PMC leakage less than or equal to 5%)

Same assay, conditions: class code letter within Comment Code

Row | SMILES | Melamine formaldehyde PMC leakage (Comment Code J)
25 | CC1CCCCCCCCCCCCC(=O)C1 (stereo not drawn) [Material 79] | J (Melamine formaldehyde PMC leakage less than or equal to 5%)
26 | CC(O)C(C)/C=C1\C[C@H]2C[C@@H]1[C@@H]1C=CC[C@H]21 (stereo partly drawn) [Material 359] | J (Melamine formaldehyde PMC leakage less than or equal to 5%)
27 | C=CC(C)(CCC=C(C)C)OC(=O)c1ccccc1 (stereo not drawn) [Material 152] | J (Melamine formaldehyde PMC leakage less than or equal to 5%)
28 | CCCCCCCCCCCCCC(=O)OC [Material 104] | J (Melamine formaldehyde PMC leakage less than or equal to 5%)
29 | O=C(C=Cc1ccccc1)OCC=Cc1ccccc1 [Material 552] | J (Melamine formaldehyde PMC leakage less than or equal to 5%)
30 | CC1CCC(C(C)C)C2(C1)OCC(CO)O2 (racemic) [Material 128] | J (Melamine formaldehyde PMC leakage less than or equal to 5%)
31 | C=CCCC(=O)C1CCCC(C)(C)C1 (stereo not drawn) [Material 334] | J (Melamine formaldehyde PMC leakage less than or equal to 5%)
32 | CCCCCCCCCC(C)C=O (stereo not drawn) [Material 103] | J (Melamine formaldehyde PMC leakage less than or equal to 5%)
33 | CC=C(C)C(=O)OCCC=CCC [Material 274] | J (Melamine formaldehyde PMC leakage less than or equal to 5%)
34 | CC1=CCC(C=CC(C)C(C)O)C1(C)C (stereo not drawn) [Material 416] | J (Melamine formaldehyde PMC leakage less than or equal to 5%)
35 | COc1ccccc1-c1ccccc1 [Material 22] | J (Melamine formaldehyde PMC leakage less than or equal to 5%)
36 | C=CC1(C)CCC(C(C)C)=CC1C(=C)C (stereo not drawn) [Material 461] | J (Melamine formaldehyde PMC leakage less than or equal to 5%)
37 | CCC(C)C1(C)COC(C2CCC(C)=CC2C)OC1 (stereo not drawn) [Material 184] | J (Melamine formaldehyde PMC leakage less than or equal to 5%)
38 | C=CC(=C)CCCC(C)(C)OC(C)=O [Material 35] | J (Melamine formaldehyde PMC leakage less than or equal to 5%)
39 | CC1CCC(C(C)C)C(=O)C1 (stereo not drawn) [Material 208] | J (Melamine formaldehyde PMC leakage less than or equal to 5%)
40 | CCCCCCCCCCCC#N [Material 498] | J (Melamine formaldehyde PMC leakage less than or equal to 5%)
41 | CCCCCCCCCCCCCC=O [Material 36] | J (Melamine formaldehyde PMC leakage less than or equal to 5%)
42 | CC(CCCC(C)(C)O)CC(c1c[nH]c2ccccc12)c1c[nH]c2ccccc12 (stereo not drawn) [Material 244] | J (Melamine formaldehyde PMC leakage less than or equal to 5%)
43 | CCCCCCCCCCCCCCCC(=O)OC(C)C [Material 195] | J (Melamine formaldehyde PMC leakage less than or equal to 5%)
44 | CCCC(=O)OC1CC2CC1C1CC=CC21 (stereo not drawn) [Material 484] | J (Melamine formaldehyde PMC leakage less than or equal to 5%)

Same assay, conditions: code J of the Comment Code column, Table 1

Row | SMILES | Comment Code: Melamine formaldehyde PMC leakage
45 | COC(=O)c1ccccc1N=CC(C)Cc1ccc(C(C)(C)C)cc1 (stereo not drawn) [Material 1121] | J (Melamine formaldehyde PMC leakage less than or equal to 5%)
46 | CC1(C)C2CCC3(C2)C1C1(CCC3(C)C)OCCO1 (stereo not drawn) [Material 1144] | J (Melamine formaldehyde PMC leakage less than or equal to 5%)
47 | C=C1CCC2OC2(C)CCC2C1CC2(C)C (stereo not drawn) [Material 1148] | J (Melamine formaldehyde PMC leakage less than or equal to 5%)

Same assay, conditions: code letter J

Row | SMILES | Comment Code: Melamine formaldehyde PMC leakage
48 | CC1(C)C2=C(CO)CCC(C)(C)C23CCC1C3 (stereo not drawn) [Material 248] | J (Melamine formaldehyde PMC leakage less than or equal to 5%)
49 | CC=Cc1ccc(OC(C)=O)c(OC)c1 [Material 213] | J (Melamine formaldehyde PMC leakage less than or equal to 5%)
50 | CC(O)C(C)/C=C1\C[C@H]2C[C@@H]1[C@@H]1C=CC[C@H]21 (stereo partly drawn) [Material 359] | J (Melamine formaldehyde PMC leakage less than or equal to 5%)
51 | CCC(=O)OC1CC2CC1C1CC=CC21 (stereo not drawn) [Material 919] | J (Melamine formaldehyde PMC leakage less than or equal to 5%)
52 | CC1(C)C2CCC3(C2)C1C1(CCC3(C)C)OCCO1 (stereo not drawn) [Material 1144] | J (Melamine formaldehyde PMC leakage less than or equal to 5%)
53 | C=C1CCC2OC2(C)CCC2C1CC2(C)C (stereo not drawn) [Material 1148] | J (Melamine formaldehyde PMC leakage less than or equal to 5%)
54 | O=C(OCc1ccccc1)c1ccccc1O [Material 641] | J (Melamine formaldehyde PMC leakage less than or equal to 5%)
55 | CC(C)=CCCC(C)CCOC(=O)c1ccccc1 (stereo not drawn) [Material 515] | J (Melamine formaldehyde PMC leakage less than or equal to 5%)
56 | CC(C)=CCC/C(C)=C/COC=O [Material 306] | J (Melamine formaldehyde PMC leakage less than or equal to 5%)
57 | CC1C(C)(C)C2CCC3CC(C)(C)OC3C2C1(C)C (stereo not drawn) [Material 680] | J (Melamine formaldehyde PMC leakage less than or equal to 5%)
58 | CCCCCCCC(=O)OC/C=C(\C)CCC=C(C)C [Material 308] | J (Melamine formaldehyde PMC leakage less than or equal to 5%)
59 | CCOC(=O)OC1CCCCC1C(C)(C)C (stereo not drawn) [Material 355] | J (Melamine formaldehyde PMC leakage less than or equal to 5%)
60 | CC=CC(=O)OCCCCCC [Material 55] | J (Melamine formaldehyde PMC leakage less than or equal to 5%)
61 | CC/C=C\CCOC(=O)CCC [Material 540] | J (Melamine formaldehyde PMC leakage less than or equal to 5%)
62 | CCCC(=O)OC1CC2CC1C1CC=CC21 (stereo not drawn) [Material 484] | J (Melamine formaldehyde PMC leakage less than or equal to 5%)
63 | COC(Cc1ccccc1)OC [Material 627] | J (Melamine formaldehyde PMC leakage less than or equal to 5%)

Source: US20160090556A1, “PRODUCTS COMPRISING MALODOR REDUCTION MATERIALS” (The Procter & Gamble Company, priority 2014, published 2016)
